The assay addresses integrin αIIbβ3 (mouse, on platelets) (mouse) (UniProt Q9QUM0+O54890). Kind of assay: flow cytometry on PAR4AP-stimulated washed mouse platelets. (A flow cytometer gives signals particle by particle.)

The chains behind the UniProt entries cited, without tags or fusion partners. Where a name states a change or a piece, a line headed by the entry shows the natural chain unless it says otherwise.
UniProt Q9QUM0: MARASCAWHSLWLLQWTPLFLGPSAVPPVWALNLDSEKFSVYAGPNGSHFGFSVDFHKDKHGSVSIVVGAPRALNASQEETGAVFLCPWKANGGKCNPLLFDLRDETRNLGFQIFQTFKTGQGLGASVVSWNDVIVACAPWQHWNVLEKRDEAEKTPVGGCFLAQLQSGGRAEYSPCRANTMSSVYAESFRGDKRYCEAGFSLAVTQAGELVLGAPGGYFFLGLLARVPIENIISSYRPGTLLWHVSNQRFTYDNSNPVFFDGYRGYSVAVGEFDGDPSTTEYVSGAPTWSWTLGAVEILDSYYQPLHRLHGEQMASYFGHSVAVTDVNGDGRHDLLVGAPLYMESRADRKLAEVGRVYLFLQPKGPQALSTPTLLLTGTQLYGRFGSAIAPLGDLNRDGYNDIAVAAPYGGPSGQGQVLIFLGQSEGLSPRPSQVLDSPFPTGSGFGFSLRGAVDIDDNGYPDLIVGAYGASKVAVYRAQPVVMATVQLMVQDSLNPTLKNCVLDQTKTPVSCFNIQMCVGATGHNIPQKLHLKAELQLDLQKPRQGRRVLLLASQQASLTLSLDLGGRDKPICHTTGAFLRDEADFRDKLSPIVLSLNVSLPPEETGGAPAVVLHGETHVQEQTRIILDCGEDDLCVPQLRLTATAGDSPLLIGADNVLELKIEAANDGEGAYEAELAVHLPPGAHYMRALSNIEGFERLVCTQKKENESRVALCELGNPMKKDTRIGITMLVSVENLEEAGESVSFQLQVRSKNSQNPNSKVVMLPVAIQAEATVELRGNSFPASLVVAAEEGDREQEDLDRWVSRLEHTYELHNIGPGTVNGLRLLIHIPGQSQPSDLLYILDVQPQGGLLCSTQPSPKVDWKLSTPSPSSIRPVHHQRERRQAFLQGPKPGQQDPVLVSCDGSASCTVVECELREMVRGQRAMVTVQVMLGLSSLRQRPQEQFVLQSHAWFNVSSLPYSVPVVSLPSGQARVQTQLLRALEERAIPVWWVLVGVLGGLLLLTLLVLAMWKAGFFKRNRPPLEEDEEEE
UniProt O54890: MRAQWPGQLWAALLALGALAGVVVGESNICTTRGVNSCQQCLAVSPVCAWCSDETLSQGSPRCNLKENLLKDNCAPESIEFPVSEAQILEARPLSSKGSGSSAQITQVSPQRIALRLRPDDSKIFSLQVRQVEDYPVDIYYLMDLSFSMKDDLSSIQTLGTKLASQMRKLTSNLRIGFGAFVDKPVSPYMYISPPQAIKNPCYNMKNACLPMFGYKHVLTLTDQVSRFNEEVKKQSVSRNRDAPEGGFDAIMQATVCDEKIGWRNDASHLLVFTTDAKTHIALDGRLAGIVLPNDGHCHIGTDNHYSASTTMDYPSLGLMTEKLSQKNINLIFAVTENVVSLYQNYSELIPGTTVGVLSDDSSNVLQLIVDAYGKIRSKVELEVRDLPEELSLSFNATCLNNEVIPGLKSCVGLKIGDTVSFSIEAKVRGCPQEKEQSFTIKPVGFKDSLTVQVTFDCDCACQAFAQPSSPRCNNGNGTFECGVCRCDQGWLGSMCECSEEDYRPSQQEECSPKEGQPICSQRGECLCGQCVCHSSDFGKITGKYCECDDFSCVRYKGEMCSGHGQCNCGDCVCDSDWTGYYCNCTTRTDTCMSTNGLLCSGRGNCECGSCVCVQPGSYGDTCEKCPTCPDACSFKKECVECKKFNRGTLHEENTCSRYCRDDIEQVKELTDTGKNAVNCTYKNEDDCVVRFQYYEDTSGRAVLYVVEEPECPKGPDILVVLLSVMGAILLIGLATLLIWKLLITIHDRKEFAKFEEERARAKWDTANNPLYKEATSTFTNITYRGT
UniProt P02671: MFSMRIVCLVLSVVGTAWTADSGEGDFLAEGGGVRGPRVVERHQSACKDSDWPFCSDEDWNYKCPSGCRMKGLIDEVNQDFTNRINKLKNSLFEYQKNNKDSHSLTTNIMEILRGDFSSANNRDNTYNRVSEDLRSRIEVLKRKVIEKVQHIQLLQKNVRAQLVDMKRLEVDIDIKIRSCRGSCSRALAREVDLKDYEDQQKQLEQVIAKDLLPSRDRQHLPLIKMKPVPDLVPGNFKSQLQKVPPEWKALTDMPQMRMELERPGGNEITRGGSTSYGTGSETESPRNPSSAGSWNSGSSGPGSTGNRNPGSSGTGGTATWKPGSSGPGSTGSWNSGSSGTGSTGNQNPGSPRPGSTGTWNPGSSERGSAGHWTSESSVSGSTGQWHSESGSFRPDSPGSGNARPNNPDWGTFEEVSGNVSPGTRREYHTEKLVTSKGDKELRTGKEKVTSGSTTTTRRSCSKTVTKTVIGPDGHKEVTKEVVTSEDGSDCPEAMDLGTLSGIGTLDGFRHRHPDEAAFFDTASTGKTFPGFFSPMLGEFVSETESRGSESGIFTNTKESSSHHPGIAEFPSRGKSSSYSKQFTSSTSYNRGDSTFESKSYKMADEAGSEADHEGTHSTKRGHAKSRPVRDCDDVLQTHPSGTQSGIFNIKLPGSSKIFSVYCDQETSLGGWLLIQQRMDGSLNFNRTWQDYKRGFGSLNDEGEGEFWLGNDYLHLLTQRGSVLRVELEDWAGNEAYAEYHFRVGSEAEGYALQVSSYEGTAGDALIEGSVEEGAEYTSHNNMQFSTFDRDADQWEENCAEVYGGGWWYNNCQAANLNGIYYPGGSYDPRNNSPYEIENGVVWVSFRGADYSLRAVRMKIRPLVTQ

These are yes or no findings as the source states them, for the method shown. Some results given as binding are weak or reduced against the parent protein; the word gives no strength.

Consider “Oregon Green-conjugated fibrinogen (from UniProt P02671 20-629; P02675 31-491; P02679 27-437) (ligand)”, for which the binding result is listed as “binds”.
